# From PubChem BioAssay AID540276 (National Center for Advancing Translational Sciences (NCATS), 2011)
# The campaign covered roughly 300,000 compounds. About 5,400 (1.8%) were called active. Inconclusive means that the source gave no clear call. Such entries were picked first, then a sample of the others. The call rests on the fitted dose curve; tested in HEK293 cells. Where the call is inconclusive, the potency comes from a doubtful curve fit.
# Assay: qHTS for inhibitors of binding or entry into cells for Marburg Virus
# Conditions: Marburg virus pseudotyped entry inhibition, cell reporter; activity change, negative = inhibition: at 37.8 µM (top of the series) unless noted
# On the % scale 0 is the no-effect control and ±100 the full control effect; potency means the concentration at half of the fitted maximal effect.
Compound,Potency,"activity change, negative = inhibition"
CC(CCc1ccccc1)NC(=O)C(Cc1ccccc1)NS(=O)(=O)c1cccs1 (stereo not drawn),"inconclusive: 9.2 µM [inhibitor, partial curve, poor fit]",–
Cc1ccc(-n2c(NN)nc3ccccc3c2=O)c(C)c1,"inconclusive: 17.8 µM [activator, partial curve, poor fit]",–
COc1ccccc1OCC(=O)Nc1ccccc1C(=O)N1CCCCC1,–,inactive: 25.6%
CN(C)S(=O)(=O)c1cccc(NC(=O)Cc2ccc(-c3ccccc3)cc2)c1,"inconclusive: 35.5 µM [inhibitor, single point]",–
CCOc1ccc2c(c1)-c1c(ssc1=S)C(C)(C)N2,–,inactive: -25.4%
OC1CCN(C(c2ccc3ncccc3c2)c2nnnn2C2CCCCC2)CC1 (stereo not drawn),–,inactive: 6.55%
CCCCN(C(=O)CNC(=O)c1ccco1)C(C(=O)NC1CCCCC1)c1ccc(OC)cc1OC (stereo not drawn),"inconclusive: 6.31 µM [inhibitor, partial curve, poor fit]",–
CCC(=O)Nc1cc(-c2nn3c(C)nnc3s2)ccc1C,–,inactive: 11.5%
Cc1ccc(S(=O)(=O)N(C)Cc2ccc(C(=O)N/N=C/c3ccc(OC(F)F)cc3)cc2)cc1,"inconclusive: 15.8 µM [inhibitor, single point]",–
CCOC(=O)C(C(=O)OCC)C(=O)c1cc(OC)c(OC)c(OC)c1,"inconclusive: 3.55 µM [inhibitor, single point]",–
COc1ccc(-c2csc(N(CC3CCCO3)C(=O)c3ccco3)n2)cc1 (stereo not drawn),"inconclusive: 29.1 µM [inhibitor, single point]",–
CC(C)Oc1ccc(/C=N/NC(N)=S)cc1,"inconclusive: 0.224 µM [activator, full curve, poor fit]",–
CC(C)CC(=O)Nc1nnc(SCC(=O)NCc2ccc3c(c2)OCO3)s1,"inconclusive: 1.26 µM [inhibitor, single point]",–
O=C(Cc1ccccc1)NCC(=O)OCC(=O)c1ccc([N+](=O)[O-])cc1,"inconclusive: 0.891 µM [inhibitor, full curve, poor fit]",–
O=C(/C=C/c1ccc(Cl)c(Cl)c1)N1CCc2ccccc21,"inconclusive: 0.794 µM [activator, full curve, poor fit]",–
Cc1nn(C(C)(C)C)c(OC(=O)c2cccs2)c1Sc1ccccc1,"inconclusive: 16.4 µM [inhibitor, single point]",–
COc1ccc(C(=O)NN/C(C)=C/C(=O)C(F)(F)C(F)(F)C(F)(F)F)cc1,"inconclusive: 18.4 µM [activator, single point]",–
COc1cccc(C(=O)NC(=S)Nc2ccc(N(C)C)cc2)c1,"inconclusive: 1.12 µM [activator, full curve, poor fit]",–
C/C(=N\NC(=S)NC1CCCCC1)c1ccc(C)o1,"inconclusive: 35.5 µM [inhibitor, single point]",–
Cc1nc2c3ccccc3nc(NNC(=O)CCC(=O)O)n2n1,"inconclusive: 4.47 µM [inhibitor, single point]",–
COc1ccc(NS(=O)(=O)c2ccc(N3CCCC3)c(NC(=S)Nc3ccc(SC(F)F)cc3)c2)cc1,"inconclusive: 15.8 µM [inhibitor, single point]",–
Cc1cc(C)cc(NC(=O)Nc2cc(S(=O)(=O)N(C)C)ccc2C)c1,"inconclusive: 35.5 µM [inhibitor, single point]",–

# Quoted from above for reference:
Compound,Potency,"activity change, negative = inhibition"
CCOc1ccc2c(c1)-c1c(ssc1=S)C(C)(C)N2,–,inactive: -25.4%
OC1CCN(C(c2ccc3ncccc3c2)c2nnnn2C2CCCCC2)CC1 (stereo not drawn),–,inactive: 6.55%
CCCCN(C(=O)CNC(=O)c1ccco1)C(C(=O)NC1CCCCC1)c1ccc(OC)cc1OC (stereo not drawn),"inconclusive: 6.31 µM [inhibitor, partial curve, poor fit]",–

# Continuation.

Compound,Potency,"activity change, negative = inhibition"
CC(C)CC(=O)NC(=S)Nc1ccc(N2CCOCC2)cc1,"inconclusive: 29.1 µM [activator, single point]",–
CCn1c(C)nc2cc(C(=O)NNC(=S)Nc3ccc(Cl)cc3Cl)ccc21,–,inactive: 12.6%
COC(=O)c1ccc(NC(=O)C(C)Sc2nc(=O)cc(N)n2CCc2ccccc2)cc1 (stereo not drawn),"inconclusive: 15.8 µM [inhibitor, partial curve, poor fit]",–
COc1ccc(CN=C(Nc2ccccc2)SC2CC(=O)N(C)C2=O)cc1 (stereo not drawn),"inconclusive: 5.8 µM [inhibitor, single point]",–
COc1ccc(-c2nc(/C=C3\C(C)=Nc4ccccc43)c(O)o2)cc1,–,inactive: -17.5% [at 46.1 µM]
Cc1ccc(NC2=C(NCCO)C(=O)c3ccccc3C2=O)cc1,"inconclusive: 0.411 µM [activator, full curve, poor fit]",–
O=C(O)c1ccc(NC(=O)c2ccc(Cl)c(S(=O)(=O)N3CCCCCC3)c2)cc1,–,inactive: 1.86% [at 46.1 µM]
O=C1C2C(C(=O)N1/N=C/c1ccc([N+](=O)[O-])o1)C1C=CC2C12CC2 (stereo not drawn),"inconclusive: 35.5 µM [inhibitor, single point]",–
Cc1cc2c(C)nc(N/N=C/c3ccc([N+](=O)[O-])cc3)nc2o1,–,inactive: 25.1%
COc1cc(NS(=O)(=O)c2ccc(NC(=O)/C=C/C(=O)O)cc2)nc(OC)n1,"inconclusive: 0.708 µM [inhibitor, single point]",–
CN(C1CCCCC1)S(=O)(=O)c1ccc2c(c1)c(=O)c(C(=O)N1CCN(c3ccccc3)CC1)cn2C,"inconclusive: 2 µM [activator, partial curve, poor fit]",–
COc1ccc(/C=N/NC(=O)c2cc(C3CC3)[nH]n2)cc1OC,–,inactive: -1.16% [at 46.1 µM]
ON1C2CCCCC2N(O)C1c1ccccc1C(F)(F)F (stereo not drawn),–,inactive: 4.94%
O=C(Nc1nc2cc3c(cc2s1)OCCO3)c1ccncc1,"inconclusive: 25.1 µM [inhibitor, single point]",–
NC(=O)c1cc(Cc2ccccc2)sc1NC(=O)c1ccco1,"inconclusive: 6.51 µM [activator, single point]",–
N#C/C(=N\Nc1ccccc1)C(N)=S,–,inactive: 3.54% [at 46.1 µM]
C/C(=N\NC(=O)COc1ccc(C(C)(C)C)cc1)c1ccc(-n2ccnc2)cc1,–,inactive: 7.85%
CCOC(=O)c1c(C)[nH]c(C(=O)CSc2nnc(-c3cccs3)n2Cc2ccccc2)c1C,"inconclusive: 8.2 µM [inhibitor, partial curve]",–
O=C(NCC(=O)N1CCC(Cc2ccccc2)CC1)c1ccc(Cl)cc1,–,inactive: -1.83%
O=C(Cc1ccc(Cl)cc1)Nc1ccc(N2CCN(C(=O)c3ccco3)CC2)cc1,"inconclusive: 0.112 µM [inhibitor, full curve, poor fit]",–
N#CCCn1cc(C(=O)O)c(-c2ccc3ccccc3c2)n1,–,inactive: 15.5%
